# Measurements published in article PMC7819943, “Rice protein-binding microarrays: a tool to detect cis-acting elements near promoter regions in rice”.
# This is one part of the list.
# Molecular target: T1, OsSMF1 (Oryza sativa, UniProt Q6ZLB0 1-436)
# T1 sequence: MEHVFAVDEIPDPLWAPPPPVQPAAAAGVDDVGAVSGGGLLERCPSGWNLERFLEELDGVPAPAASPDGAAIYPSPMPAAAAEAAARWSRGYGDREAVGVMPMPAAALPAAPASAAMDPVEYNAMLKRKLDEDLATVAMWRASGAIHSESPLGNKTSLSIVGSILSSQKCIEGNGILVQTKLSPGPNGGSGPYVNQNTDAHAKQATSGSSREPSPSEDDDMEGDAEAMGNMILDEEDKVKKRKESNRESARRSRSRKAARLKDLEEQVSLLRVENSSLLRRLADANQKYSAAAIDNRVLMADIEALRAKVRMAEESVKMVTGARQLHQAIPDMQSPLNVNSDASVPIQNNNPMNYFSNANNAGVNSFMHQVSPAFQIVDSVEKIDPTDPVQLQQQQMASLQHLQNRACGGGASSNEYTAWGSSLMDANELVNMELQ
# Experiment: protein-binding microarray (RPBM); PBS, 2% BSA, 51.3 ng/ul salmon testes DNA, 50 uM zinc acetate, 200 nM TF, 25 C, 1 h; high values mean tight binding
# Conditions: protein: recombinant; tags: N-terminal polyhistidine and DsRed monomer fusion (pET32a); chain copies: 2; label: CyDye5-dUTP incorporated in the synthesized complementary strand; 3' TTTTT single-stranded linker to array surface; dsDNA, one strand shown
# In short: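 The binding signal for each feature is its fluorescence intensity in arbitrary units. An Axon 4000B scanner was used to read a custom Agilent array that had been made double-stranded with Cy5-dUTP primer extension, blocked with 2% BSA, incubated at 25 °C for 1 h with 200 nM protein in PBS, 2% BSA, salmon testes DNA and 50 µM zinc acetate, and washed. The protein was an N-terminal polyhistidine–DsRed transcription factor fusion from E. coli BL21-CodonPlus, purified on Ni–NTA.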
row,Sequence,binding signal
1,AAAGGTGATGCATTTGAAATGAATGCTCATCAGCATATGACGGAGTCACCTAGTGCAG,3150 fluorescence intensity (a.u.)
2,TGCCCGGCCGCCGCCGAGAGGTCGATCAGCGGCCCGTACCCGGAGTCACCTAGTGCAG,7850 fluorescence intensity (a.u.)
3,AGGAGAAGTAGTATGATGACTACTTGTTTGGTTTAGTTCACGGAGTCACCTAGTGCAG,3180 fluorescence intensity (a.u.)
4,CCGATGCCGACTTACGCGTAACGTGAAGGCCTAGGCTGTGCGGAGTCACCTAGTGCAG,3560 fluorescence intensity (a.u.)
5,TTGGATGACACAACAACATGTAAGGTTAGAAACGATATGTCGGAGTCACCTAGTGCAG,3990 fluorescence intensity (a.u.)
6,GCGTTTCCGCCAAGCAAAGTCCACGCCACCCGCAACCACCCGGAGTCACCTAGTGCAG,4440 fluorescence intensity (a.u.)
7,TCGGAGATACTCGTAAGGGGTATGATGTGTGTACATTTATCGGAGTCACCTAGTGCAG,3230 fluorescence intensity (a.u.)
8,ATCATCCTTTATGTGTATCACGGAAACCTACGCTAGTGCTCGGAGTCACCTAGTGCAG,15500 fluorescence intensity (a.u.)
9,CTGCTCATCATTTGCGCTGCGACGCTGACGCGTGCGCCCACGGAGTCACCTAGTGCAG,6790 fluorescence intensity (a.u.)
10,GGGTGTTGGTTGTGTGTGGTGGCTGCCAAATGGCTCGTGGCGGAGTCACCTAGTGCAG,3480 fluorescence intensity (a.u.)
11,TGCGCCGATAGCTCCTGTCAACGTGTCACGCGCTGCGCCTCGGAGTCACCTAGTGCAG,8650 fluorescence intensity (a.u.)
12,CGAGCAAGACGACGAGACCGGTCTCGCTATCGTCGCGTGACGGAGTCACCTAGTGCAG,3390 fluorescence intensity (a.u.)
13,GCAATGCATTTCAAATTCAGGACCCCATAGAGAAATCAACCGGAGTCACCTAGTGCAG,29200 fluorescence intensity (a.u.)
14,ACACACGTAACTCATGCACCCTCGTTTCTACGAGATGAACCGGAGTCACCTAGTGCAG,3220 fluorescence intensity (a.u.)
15,CTCTCTCGCTCTAAATTACTGTATCGCCGTCATGTACGCCCGGAGTCACCTAGTGCAG,3910 fluorescence intensity (a.u.)
16,TTTTGCATGTCATATTGAATATTATATGGGGTGTCACATGCGGAGTCACCTAGTGCAG,4810 fluorescence intensity (a.u.)
17,ACGGCGTCCGCGTGGCCGACAAGATCCTGCGGCTTGTCCCCGGAGTCACCTAGTGCAG,3960 fluorescence intensity (a.u.)
18,ACCCTAACGCTTGAAGTCATGCACCATCTAATATGATATCCGGAGTCACCTAGTGCAG,3970 fluorescence intensity (a.u.)
19,TTCCATTGCTACTTTTCCACGTGCAGTTGCCAGGTTGTGACGGAGTCACCTAGTGCAG,5140 fluorescence intensity (a.u.)
20,CATGTGTCTAATGTCTTTCTTCTATCTTACGACGTGGGGCCGGAGTCACCTAGTGCAG,3170 fluorescence intensity (a.u.)
21,TGTGAGATCGGGATCTGTCCGCAGCCCAACATGACTGTACCGGAGTCACCTAGTGCAG,5090 fluorescence intensity (a.u.)

# At a glance, some entries already given:
row,Sequence,binding signal
5,TTGGATGACACAACAACATGTAAGGTTAGAAACGATATGTCGGAGTCACCTAGTGCAG,3990 fluorescence intensity (a.u.)
6,GCGTTTCCGCCAAGCAAAGTCCACGCCACCCGCAACCACCCGGAGTCACCTAGTGCAG,4440 fluorescence intensity (a.u.)
7,TCGGAGATACTCGTAAGGGGTATGATGTGTGTACATTTATCGGAGTCACCTAGTGCAG,3230 fluorescence intensity (a.u.)

# The list goes on.

row,Sequence,binding signal
1,CAAGTTTTCTTCAATAGGCAATGTGGTCACGTGAATTCTCCGGAGTCACCTAGTGCAG,3710 fluorescence intensity (a.u.)
2,GATAGCGGTTTTGGCTGACGTGGCGCCTACATGGCTATTTCGGAGTCACCTAGTGCAG,16800 fluorescence intensity (a.u.)
3,TGCCTGTCGGGATGGGATGCATATGGATGGAGTATGAACACGGAGTCACCTAGTGCAG,3170 fluorescence intensity (a.u.)
4,CGAATTTAAAATTGAAAATACAAAATTTGACTCATAAGCTCGGAGTCACCTAGTGCAG,3780 fluorescence intensity (a.u.)
5,AGGAAGAAGCAGCCTCGGTCTCTCCGATCTGCGTGGACGCCGGAGTCACCTAGTGCAG,3720 fluorescence intensity (a.u.)
6,GCTACATATGAGCACCATGACATGTCCTTAGAGGTGGAGACGGAGTCACCTAGTGCAG,3140 fluorescence intensity (a.u.)
7,GTGGCACCGTGGCATGGGTCACTGCCCGAGTCATTCCTCACGGAGTCACCTAGTGCAG,3870 fluorescence intensity (a.u.)
8,CCCTCCCCTCTTCTCCGCGCGCGACAATACCACGCCTACGCGGAGTCACCTAGTGCAG,3560 fluorescence intensity (a.u.)
9,TAAGTGGCGGTCGGTCACGCTTAGCGGCGGCCGGTCCGGTCGGAGTCACCTAGTGCAG,4300 fluorescence intensity (a.u.)
10,GGCGGCTCTGGTTCGGCGACACGTGGCGCCGGGCTGCGGCCGGAGTCACCTAGTGCAG,7500 fluorescence intensity (a.u.)
11,TCCATATAGTTCTAGATAATCCGTGGCAATAGGCCGGAGTCGGAGTCACCTAGTGCAG,3330 fluorescence intensity (a.u.)
12,CATTTCTTCTCTAGCGTTACGCTGTCCCTTCTCTCGGTGACGGAGTCACCTAGTGCAG,35400 fluorescence intensity (a.u.)
13,CGGGAGCTCTCCCGGCGGTACGGCCCCGTCATGCTCCTCCCGGAGTCACCTAGTGCAG,4810 fluorescence intensity (a.u.)
14,GCCGTAGAGGCGATGTGTCCGGCCTGTACTTTGATCGTCTCGGAGTCACCTAGTGCAG,3650 fluorescence intensity (a.u.)
15,CGCCGGGCCGGGGCAATGCTGAACTAACGCGCTTCTCATTCGGAGTCACCTAGTGCAG,3470 fluorescence intensity (a.u.)
16,TATATGGTCTTCTCAATTAAACTCCACTAAACCTCCCTATCGGAGTCACCTAGTGCAG,3680 fluorescence intensity (a.u.)
17,TTGGCATTATTAACTAGCTGCAGCGTCACATATTTCACTACGGAGTCACCTAGTGCAG,5610 fluorescence intensity (a.u.)
18,GAACCATCCAACGGTGCAGCACCAGTGGGCCCCACACACCCGGAGTCACCTAGTGCAG,18700 fluorescence intensity (a.u.)
19,ACCTGGCAATGTCTTTACTGTCTCTAATGCCATGTCAGAGCGGAGTCACCTAGTGCAG,7000 fluorescence intensity (a.u.)
20,ATGGTAGGGATGACTCTGACGATTCTCCTGGCCTCCCGCCCGGAGTCACCTAGTGCAG,4110 fluorescence intensity (a.u.)
21,TTCTGTCAATTCCTTTCACCATTTTCAGGCTGAATTTTGTCGGAGTCACCTAGTGCAG,3410 fluorescence intensity (a.u.)
